The values below come from patent publication US20120201908A1, “METHOD OF TREATING BIPOLAR DISORDER OR DEPRESSION USING AN ANTIESTROGEN” (Lunera Equities, LLLP, priority 2009, published 2012).

In experiment [1] the test system is symptoms of bipolar disorder (bipolar I). Kind of experiment: Pilot study Subject D: tamoxifen citrate added to bipolar medication, mood charts and psychiatrist visits. The experiment is classed as in vivo, human. Particulars: to Day 153, tamoxifen 20-30 mg daily, reported by family, friends, relatives and subject. An excerpt:
Subject D is a person with a family history of bipolar disorder. Although Subject D had symptoms spanning Asperger's Syndrome, Bipolar I, Obsessive-Compulsive Disorder, Oppositional Defiant Disorder and anti-social traits, bipolar I was the diagnosis for several reasons, including the fact that it was present on both sides of the family and the symptoms were better suited to a bipolar diagnosis.
First visit: Day 1. Due to Subject D's extreme condition, past hospitalizations and the complicated mixture of medications, the psychiatrist spent approximately one hour with the subject. During this time, Subject D was informed about the possible side effects of tamoxifen citrate. Subject D signed the Informed Consent Form, and was given a supply of tamoxifen citrate. Subject D was also given a copy of the Gary Sach's Mood Chart for the subject and their mother to be filled out daily for the psychiatrist's weekly review.

Experiment [2] relates to symptoms of bipolar disorder. Conditions: Subject F; to Day 98; reported by family members and subject. An excerpt: In a preferred aspect, the patient fills out the mood chart on a regular basis and a family member, friend, roommate or clinical or institutional staff member who interacts with the patient on a regular basis, also records a parallel mood chart on a regular basis. […] In another aspect, a mood chart is started at the start of treatment with an antiestrogen.
Subject F is a person who experienced a coronary three years prior to starting the study that their doctors blamed on stimulants used for ADD. Subject F had stents placed following the coronary. […] They maintain a job where they can do much of the work from home. It has been over a year since they were so severe they could not get out of bed or work. They have not had any extreme episodes in the immediate past. Subject F is nearsighted and has high blood pressure.

For `CC/C(=C(\c1ccccc1)c1ccc(OCCN(C)C)cc1)c1ccccc1.O=C(O)CC(O)(CC(=O)O)C(=O)O` [Tamoxifen citrate, (Z)2-[4-(1,2-diphenyl-1-butenyl)phenoxy]-N,N-dimethylethanamine 2-hydroxy-1,2,3-propanetricarboxylate (1:1)], the “daily functioning (synopsis)” value is given as “surprising improvement in daily functioning” in experiment [1] and “large improvement in daily functioning” in experiment [2].
